Source: publication PMC12595865

Protein sequences, listed by entry. Tags and fused reporters are not part of them.
UniProt P15090: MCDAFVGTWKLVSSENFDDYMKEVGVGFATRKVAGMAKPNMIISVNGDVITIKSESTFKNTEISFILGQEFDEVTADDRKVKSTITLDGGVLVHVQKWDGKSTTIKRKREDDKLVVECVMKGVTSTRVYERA

Molecular target: FABP4 expressed from a plasmid in HEK293T cells (bait of the IP-mass spectrometry) (UniProt P15090)
Assay: affinity purification with mass spectrometry; HEK293T cells transfected with a plasmid expressing FABP4 or a control vector; FABP4 immunoprecipitation, with IgG immunoprecipitation as negative control; bands cut from a silver-stained 12% SDS-PAGE gel, LC-MS/MS; hits intersected with the top 500 inflammation-related genes of GeneCards

binding: binds
B1: S100A9 found by IP-mass spectrometry of FABP4 in HEK293T cells (protein, UniProt P06702 1-114)
chain: MTCKMSQLERNIETIINTFHQYSVKLGHPDTLNQGEFKELVRKDLQNFLKKENKNEKVIEHIMEDLDTNADKQLSFEEFIMLMARLTWASHEKMHEGDEGPGHHHKPGLGEGTP

No constants are given. Whether binding was seen depends on the method and setting. In cells and extracts the contact can be indirect. These calls come from enrichment with a bait or labelling near it, and not all partners need be listed.
